PubChem BioAssay AID743454, Peter MacCallum Cancer Centre – 2014
In all, the deposit lists about 18,000 reagents; this is a random part of them. Over the whole deposit, 450 (2.5%) were called active. 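Single biological run; no consistent viability z cut-off exists, so the class columns, not z-scores, define the calls.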 No sequences are given here.

- Aim: 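Knock-downs lowering viability or raising caspase 3/7 activity in vorinostat-treated resistant cells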 (primary screen)
- Cell system: human HCT116-VR colon cancer cells, selected for vorinostat resistance
- Reagent: siRNA pool against human genes, 40 nM siRNA pool
- Timing: vorinostat for 24 h, read-out about 72 h after transfection
- Treatment: vorinostat at 2.5 µM final
- Detection: 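Cell viability by CellTiter-Fluor and caspase 3/7 activity by luminescence, each scaled to mock wells per plate, duplicates averaged, then robust z-scored over all plates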
- Direction: viability robust z-score: higher = more viable cells than screen typical; caspase robust z-score: higher = more caspase 3/7 activity than screen typical
- Hit rule: 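a knock-down is a hit when classed RV1 or RV2 for lowered viability, or CA1 or CA2 for caspase activation; those lethal without drug were dropped; hits were retested singly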

With knock-down of UBE3C the results were viability hit class no change; caspase hit class no change; viability robust z-score 0.76; caspase robust z-score -0.18; inactive.
SENP7 scored viability hit class no change; caspase hit class no change; viability robust z-score -0.69; caspase robust z-score -0.39; inactive.
Against OR4N3P the deposit lists viability hit class no change; caspase hit class no change; viability robust z-score 1.17; caspase robust z-score -0.29; inactive.
Silencing of EIF4G2 resulted in: viability hit class no change; caspase hit class no change; viability robust z-score -0.19; caspase robust z-score 2.56; inactive.
With knock-down of FBXO28, the record shows viability hit class no change; caspase hit class no change; viability robust z-score 0.03; caspase robust z-score 0.97; inactive.
TSNARE1 gave viability hit class no change; caspase hit class no change; viability robust z-score -0.19; caspase robust z-score -0.34; inactive.
IL7R scored viability hit class no change; caspase hit class no change; viability robust z-score 0.74; caspase robust z-score -0.16; inactive.
After knock-down of TPTE the results were viability hit class no change; caspase hit class no change; viability robust z-score 0.38; caspase robust z-score -0.22; inactive.
For IK the deposit lists viability hit class no change; caspase hit class no change; viability robust z-score -4.72; caspase robust z-score 4.38; inactive.
After knock-down of BASP1, the screen gave viability hit class no change; caspase hit class no change; viability robust z-score 0.39; caspase robust z-score 0.72; inactive.
After knock-down of PCSK1 the results were viability hit class no change; caspase hit class no change; viability robust z-score -0.5; caspase robust z-score -0.11; inactive.
Knock-down of TMEM163 resulted in: viability hit class no change; caspase hit class no change; viability robust z-score -0.1; caspase robust z-score 0.3; inactive.
Depletion of COMMD6 came out at: viability hit class no change; caspase hit class no change; viability robust z-score 0.38; caspase robust z-score 0.07; inactive.

In a second layout: results already given
{"target gene": "TMEM163", "viability hit class": "no change", "caspase hit class": "no change", "viability robust z-score": -0.1, "caspase robust z-score": 0.3, "Outcome": "inactive"}
{"target gene": "COMMD6", "viability hit class": "no change", "caspase hit class": "no change", "viability robust z-score": 0.38, "caspase robust z-score": 0.07, "Outcome": "inactive"}

The results go on:
DCAF5 scored viability hit class no change; caspase hit class no change; viability robust z-score 0.13; caspase robust z-score -0.78; inactive.
After knock-down of LRRC14B, the record shows viability hit class no change; caspase hit class no change; viability robust z-score 0.66; caspase robust z-score 0.02; inactive.
After knock-down of WDR70 the results were viability hit class no change; caspase hit class no change; viability robust z-score -0.26; caspase robust z-score 0.8; inactive.
Depletion of RTL8A gave: viability hit class no change; caspase hit class no change; viability robust z-score -0.72; caspase robust z-score 2.7; inactive.
FPR2 showed viability hit class no change; caspase hit class no change; viability robust z-score 0.9; caspase robust z-score 1.33; inactive.
AP2A1 gave viability hit class no change; caspase hit class no change; viability robust z-score 1.06; caspase robust z-score 1.73; inactive.
Silencing of TREML2 came out at: viability hit class no change; caspase hit class no change; viability robust z-score -0.44; caspase robust z-score 0.02; inactive.
After knock-down of SERINC2, the screen gave viability hit class no change; caspase hit class no change; viability robust z-score -1.04; caspase robust z-score 2.63; inactive.
